Results on one molecule are retold here after paper PMC7790228.

The chains behind the UniProt entries cited, without tags or fusion partners.
UniProt Q92734: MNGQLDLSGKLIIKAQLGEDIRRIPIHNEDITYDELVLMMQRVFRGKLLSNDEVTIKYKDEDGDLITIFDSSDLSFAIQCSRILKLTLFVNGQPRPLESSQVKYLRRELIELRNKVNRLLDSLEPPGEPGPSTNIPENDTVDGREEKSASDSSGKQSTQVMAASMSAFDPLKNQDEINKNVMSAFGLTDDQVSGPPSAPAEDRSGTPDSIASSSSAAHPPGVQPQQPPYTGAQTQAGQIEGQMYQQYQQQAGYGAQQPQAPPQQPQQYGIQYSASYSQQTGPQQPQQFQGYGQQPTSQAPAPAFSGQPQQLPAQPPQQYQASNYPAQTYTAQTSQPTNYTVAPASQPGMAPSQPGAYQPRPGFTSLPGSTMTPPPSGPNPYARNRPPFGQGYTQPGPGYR

For assay [1], the target named is TRK-Fused Gene (TFG), endogenous (human (endogenous in HeLa and HEK293T)) (UniProt Q92734). The experiment in a line: co-IP; HeLa whole cell extracts, SeV infection or Poly(I:C) transfection for indicated times; endogenous TFG immunoprecipitated, blots for endogenous TRAF3 and TBK1.
Assay [2] shares this target. The experiment in a line: co-IP; HEK293T whole cell extracts, SeV infection; endogenous TFG immunoprecipitated, blots for endogenous mTOR and TBK1.

Results are given in words; binding and its absence hold for the method and conditions named. Binding seen in cells or lysates may run through a third protein. Some binding calls cover weakened binding; strength is not graded here.

B1: TANK-Binding Kinase (TBK1), endogenous (enzyme, UniProt Q9UHD2 1-729)
chain: MQSTSNHLWLLSDILGQGATANVFRGRHKKTGDLFAIKVFNNISFLRPVDVQMREFEVLKKLNHKNIVKLFAIEEETTTRHKVLIMEFCPCGSLYTVLEEPSNAYGLPESEFLIVLRDVVGGMNHLRENGIVHRDIKPGNIMRVIGEDGQSVYKLTDFGAARELEDDEQFVSLYGTEEYLHPDMYERAVLRKDHQKKYGATVDLWSIGVTFYHAATGSLPFRPFEGPRRNKEVMYKIITGKPSGAISGVQKAENGPIDWSGDMPVSCSLSRGLQVLLTPVLANILEADQEKCWGFDQFFAETSDILHRMVIHVFSLQQMTAHKIYIHSYNTATIFHELVYKQTKIISSNQELIYEGRRLVLEPGRLAQHFPKTTEENPIFVVSREPLNTIGLIYEKISLPKVHPRYDLDGDASMAKAITGVVCYACRIASTLLLYQELMRKGIRWLIELIKDDYNETVHKKTEVVITLDFCIRNIEKTVKVYEKLMKINLEAAELGEISDIHTKLLRLSSSQGTIETSLQDIDSRLSPGGSLADAWAHQEGTHPKDRNVEKLQVLLNCMTEIYYQFKKDKAERRLAYNEEQIHKFDKQKLYYHATKAMTHFTDECVKKYEAFLNKSEEWIRKMLHLRKQLLSLTNQCFDIEEEVSKYQEYTNELQETLPQKMFTASSGIKHTMTPIYPSSNTLVEMTLGMKKLKEEMEGVVKELAENNHILERFGSLTMDGGLRNVDCL
Regarding B1, the binding result in assay [1] and in assay [2] was “binds” each time.
